Results published in patent US20200246365A1, “COMPOUNDS, PHARMACEUTICAL COMPOSITIONS AND USE THEREOF AS INHIBITORS OF RAN GTPASE” (THE ROYAL INSTITUTION FOR THE ADVANCEMENT OF LEARNING / …, priority 2017, published 2020).
For part of these data: The name of at least one read-out is uncertain. At least one compound was matched to its structure with a doubt left.

Columns and labels:
TOV112D cells = assay: Clonogenic survival assay, TOV112D; type: cell-based, human
Method: (§1) The human EOC cell lines used (TOV81D, TOV112D, OV90, TOV21G, OV866(2), TOV1369(R), OV1369(R2), TOV1946, OV1946, TOV2295(R), OV4485) were derived in our laboratory from patients' tumors (TOV) or ascites (OV). All EOC cell lines were maintained in a low oxygen condition of 7% O2 and 5% CO2 and grown in OSE medium (Wisent, Montreal, QC) supplemented with 10% FBS (Wisent), 0.5 μg/mL amphotericin B (Wisent) and 50 μg/mL gentamicin (Life Technologies Inc., Burlington, ON). The human retinal epithelial cell line ARPE-19 was purchased from American Type Culture Collection (ATCC, Manassas, Va.) and maintained in DMEM-F12 (Wisent) supplemented with 10% FBS (Wisent), 0.5 μg/mL amphotericin B (Wisent) and 50 μg/mL gentamicin (Life Technologies Inc.).
(§2) Clonogenic assays were performed as previously described. Colonies were counted under a stereo microscope and reported as percent of control. IC50 values were determined using Graph Pad Prism 5 software (GraphPad Software Inc., San Diego, Calif.). Each experiment was performed in duplicate and repeated three times. Sensitivity of the cell lines to small molecules inhibitors of Ran was assessed using a concentration range of 0-50 μM.
(§3) Small molecules inhibitors of Ran were dissolved in 100% dimethyl sulfoxide (DMSO) and then further diluted in complete culture media for in vitro experiments. Drugs were added 24 hours after seeding.

[1] = molecular target: T1, recombinant human Ran protein (Homo sapiens, UniProt P62826); assay: Surface Plasmon Resonance (SPR) binding to immobilized Ran; conditions: different compound concentrations, reached saturation
T1 construct: Recombinant Ran protein was purchased from Sigma-Aldrich Inc. (R3152)
Method: SPR experiments were carried out using the Biacore 3000 system. Recombinant Ran protein was purchased from Sigma-Aldrich Inc. (R3152). The running buffer contained PBS, pH7.4, 1 mM GDP, 2 mM MgCl2 and 0.2% DMSO. The regeneration buffer contained 10 mM glycine (pH 2.5). Ran-GDP protein was immobilized onto a CM5 chip; samples of compounds in running buffer were injected at 30 μL/min for 10 minutes contact time followed by 5 minutes regeneration. Kd was calculated using the GraphPad Prism 5 software.

ARPE-19 cells = assay: Clonogenic survival assay, ARPE-19; type: cell-based, human
Method: as §1, §2, §3

[2] = system: other aneuploid EOC cells; assay: IncuCyte cell proliferation assay, other aneuploid EOC cell lines; type: cell-based, human; conditions: 40 μM
Method: as §1
Cells (2,000 cells/well) were plated in a 96-well plate. The next day, compounds were added at the indicated concentrations. Following treatment, cell confluence was imaged by phase contrast using the IncuCyte live cell monitoring system (Essen BioScience, Ann Arbor, Mich.). Frames were captured at 2-hour intervals using a 10× objective. For Ran knock down experiments, cells were seeded in a 96-well plate (4,000 cells/well) directly after transfection. Cell confluence monitoring started the next day as described above. […]

Ran-GTP = Ran-GTP (Homo sapiens, UniProt P62826); assay: Ran activation (Ran-GTP pull-down) assay in TOV112D cells; type: cell-based; conditions: 1 hour treatment, vs DMSO
Method: Cells were seeded onto 6-well tissue culture plates in such a way that cell confluence reaches approximately 70% the day of experiment. The day of experiment cells were treated for 1 hour with the indicated compounds prior to protein extraction and quantification. Assays were performed using the Ran activation assay kit (Cell Biolabs). Briefly, 400 μg of lysates were incubated for one hour at 4° C. with agarose beads conjugated to RANBP1, which specifically binds Ran-GTP. Beads were pelleted, washed, and re-suspended in SDS-PAGE buffer, followed by immunoblotting with an anti-Ran antibody.

Rac1-GTP = Rac1-GTP (Homo sapiens, UniProt P63000); assay: Rac1-GTP pull-down assay; type: cell-based; conditions: 50 μM M36 (FIG. 7F)
cleaved PARP = assay: Apoptosis by PARP cleavage (Western blot); type: cell-based, human; conditions: 96 hours after treatment
Method: Cells were lysed with RIPA buffer containing protease inhibitors. Whole cell lysates were run through a Bradford assay (Thermo Fisher Scientific) for protein quantification. Around 25-50 μg of proteins were separated onto 12.5% SDS-PAGE and transferred onto nitrocellulose membranes. The resultant blots were probed with Ran (1:10000, sc-271376 Santa Cruz Biotechnology, Dallas, Tex.), cleaved PARP (1:1000, #9541, Cell Signaling Technology Inc., Danvers, Mass.), GAPDH (1:2500, #2118, Cell Signaling Technology Inc.) or beta-actin (1:50000, ab6276, Abcam Inc., Toronto, ON, Canada) primary antibodies overnight at 4° C. then with peroxidase-conjugated secondary antibodies for 2 hours at room temperature. Proteins were detected using enhanced chemiluminescence (Thermo Fisher Scientific).

Structure (SMILES): c1ccc(CNCc2cc(CNCc3ccccc3)cc(CNCc3ccccc3)c2)cc1 [M51]
- IC50 lower than that of M36 (TOV112D cells; TOV112D clonogenic): 15 times

Structure (SMILES): Oc1ccc(CCCCCCc2ccc(O)cc2)cc1 [V188]
- binding to the immobilized Ran protein [1]: concentration-dependent binding
- colony formation of TOV112D cells (TOV112D cells; single dose 10 μM): specifically inhibited colony formation of EOC
- effect on normal ARPE-19 cell line in detailed clonogenic assay (ARPE-19 cells; different concentrations): only minimal effect
- colony formation of ARPE-19 cells (ARPE-19 cells; single dose 10 μM): not normal cells
- cell proliferation of other aneuploid EOC cells [2]: inhibited cell proliferation
- active Ran-GTP levels (pull-down) (Ran-GTP): marked decrease in Ran-GTP levels
- Rac1-GTP levels (pull-down) (Rac1-GTP): no decreased levels of Rac1-GTP
- apoptosis (cleaved PARP on Western blot) (cleaved PARP): induced cell apoptosis
